Test results taken from the supplement of paper PMC10849652.
Some of the results follow.

Amino acid sequences for entries named in this document (tags omitted). A change or cut given only in a name is not applied to a line headed by its entry.
UniProt Q15165: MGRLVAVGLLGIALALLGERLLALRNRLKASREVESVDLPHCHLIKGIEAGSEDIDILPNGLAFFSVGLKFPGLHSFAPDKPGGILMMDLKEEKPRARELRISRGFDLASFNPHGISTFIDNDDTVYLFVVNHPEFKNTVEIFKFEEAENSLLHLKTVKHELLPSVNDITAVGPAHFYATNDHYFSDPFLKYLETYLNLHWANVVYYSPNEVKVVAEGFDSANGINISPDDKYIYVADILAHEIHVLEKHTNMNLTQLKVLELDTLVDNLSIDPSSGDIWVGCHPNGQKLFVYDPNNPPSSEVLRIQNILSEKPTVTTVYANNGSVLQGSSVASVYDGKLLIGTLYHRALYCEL
UniProt P16435: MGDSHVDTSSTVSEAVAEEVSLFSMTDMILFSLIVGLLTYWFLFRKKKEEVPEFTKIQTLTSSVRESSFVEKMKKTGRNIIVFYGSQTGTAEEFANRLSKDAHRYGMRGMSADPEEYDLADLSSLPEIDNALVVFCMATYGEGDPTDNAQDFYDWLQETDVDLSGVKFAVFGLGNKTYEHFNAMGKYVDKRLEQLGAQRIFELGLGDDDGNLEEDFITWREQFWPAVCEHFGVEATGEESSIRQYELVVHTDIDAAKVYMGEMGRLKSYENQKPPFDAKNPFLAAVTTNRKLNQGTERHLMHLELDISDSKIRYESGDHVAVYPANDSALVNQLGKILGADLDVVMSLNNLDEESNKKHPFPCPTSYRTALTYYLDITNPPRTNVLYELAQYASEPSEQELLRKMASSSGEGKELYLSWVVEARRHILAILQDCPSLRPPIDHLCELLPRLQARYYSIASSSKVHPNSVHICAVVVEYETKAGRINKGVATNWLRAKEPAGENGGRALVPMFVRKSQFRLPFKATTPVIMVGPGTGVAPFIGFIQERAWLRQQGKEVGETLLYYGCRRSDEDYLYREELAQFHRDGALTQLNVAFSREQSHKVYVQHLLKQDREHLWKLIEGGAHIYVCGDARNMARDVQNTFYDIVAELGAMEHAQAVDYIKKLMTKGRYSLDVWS
UniProt O15031: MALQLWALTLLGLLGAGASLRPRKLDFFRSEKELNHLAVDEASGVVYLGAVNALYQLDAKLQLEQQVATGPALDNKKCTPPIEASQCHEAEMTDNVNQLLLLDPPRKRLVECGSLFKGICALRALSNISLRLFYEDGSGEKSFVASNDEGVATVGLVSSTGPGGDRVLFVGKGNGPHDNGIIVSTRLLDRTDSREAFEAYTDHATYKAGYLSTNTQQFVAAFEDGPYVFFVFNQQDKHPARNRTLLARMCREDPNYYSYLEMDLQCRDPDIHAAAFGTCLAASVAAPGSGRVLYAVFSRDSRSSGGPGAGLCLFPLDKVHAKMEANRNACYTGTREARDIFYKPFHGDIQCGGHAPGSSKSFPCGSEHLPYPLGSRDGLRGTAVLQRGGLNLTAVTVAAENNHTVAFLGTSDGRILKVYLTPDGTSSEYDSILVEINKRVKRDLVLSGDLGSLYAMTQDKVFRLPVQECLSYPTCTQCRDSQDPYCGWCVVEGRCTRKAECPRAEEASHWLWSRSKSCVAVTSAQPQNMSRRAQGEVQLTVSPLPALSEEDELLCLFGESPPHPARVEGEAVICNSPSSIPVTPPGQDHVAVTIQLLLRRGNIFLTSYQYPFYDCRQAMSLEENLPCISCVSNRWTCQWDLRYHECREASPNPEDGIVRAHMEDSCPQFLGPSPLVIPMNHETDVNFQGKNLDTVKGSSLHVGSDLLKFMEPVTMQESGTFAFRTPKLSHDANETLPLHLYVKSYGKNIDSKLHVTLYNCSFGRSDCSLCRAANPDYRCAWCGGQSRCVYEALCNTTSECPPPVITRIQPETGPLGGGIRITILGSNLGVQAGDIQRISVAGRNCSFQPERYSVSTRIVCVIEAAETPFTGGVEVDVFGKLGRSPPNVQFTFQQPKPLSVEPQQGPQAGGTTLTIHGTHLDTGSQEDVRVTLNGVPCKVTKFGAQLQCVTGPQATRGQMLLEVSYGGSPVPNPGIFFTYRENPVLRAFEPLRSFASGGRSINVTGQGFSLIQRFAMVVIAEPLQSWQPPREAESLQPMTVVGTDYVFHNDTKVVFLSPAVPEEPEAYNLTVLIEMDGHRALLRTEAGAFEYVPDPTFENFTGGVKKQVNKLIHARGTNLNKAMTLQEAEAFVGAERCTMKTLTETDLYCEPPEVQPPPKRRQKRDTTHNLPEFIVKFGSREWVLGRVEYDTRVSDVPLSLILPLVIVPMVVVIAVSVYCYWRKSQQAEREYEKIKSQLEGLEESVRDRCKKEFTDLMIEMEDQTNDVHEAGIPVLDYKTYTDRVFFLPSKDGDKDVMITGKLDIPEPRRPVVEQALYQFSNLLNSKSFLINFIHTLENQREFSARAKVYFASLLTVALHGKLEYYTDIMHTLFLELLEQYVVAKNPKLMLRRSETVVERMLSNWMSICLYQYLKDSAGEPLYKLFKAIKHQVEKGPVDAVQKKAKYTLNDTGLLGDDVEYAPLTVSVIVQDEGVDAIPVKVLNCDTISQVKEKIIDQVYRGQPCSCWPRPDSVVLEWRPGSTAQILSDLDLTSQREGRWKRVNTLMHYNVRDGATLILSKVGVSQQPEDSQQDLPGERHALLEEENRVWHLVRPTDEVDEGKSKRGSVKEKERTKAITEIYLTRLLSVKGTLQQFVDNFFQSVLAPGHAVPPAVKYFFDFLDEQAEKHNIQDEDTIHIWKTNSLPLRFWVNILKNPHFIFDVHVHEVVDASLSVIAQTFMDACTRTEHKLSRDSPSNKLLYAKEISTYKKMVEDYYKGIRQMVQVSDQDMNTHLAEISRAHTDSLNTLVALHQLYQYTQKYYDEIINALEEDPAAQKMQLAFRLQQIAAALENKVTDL
UniProt P05423: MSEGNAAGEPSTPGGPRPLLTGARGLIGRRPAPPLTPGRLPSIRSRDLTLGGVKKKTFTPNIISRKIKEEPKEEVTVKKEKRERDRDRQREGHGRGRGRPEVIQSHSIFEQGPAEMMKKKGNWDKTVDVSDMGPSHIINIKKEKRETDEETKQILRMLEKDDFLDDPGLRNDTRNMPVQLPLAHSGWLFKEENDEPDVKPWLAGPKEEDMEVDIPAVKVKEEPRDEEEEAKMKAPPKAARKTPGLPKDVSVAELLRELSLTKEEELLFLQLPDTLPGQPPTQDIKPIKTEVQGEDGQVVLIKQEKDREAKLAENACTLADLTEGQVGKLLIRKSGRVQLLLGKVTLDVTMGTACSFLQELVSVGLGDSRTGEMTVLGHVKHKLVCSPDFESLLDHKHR
UniProt O15162: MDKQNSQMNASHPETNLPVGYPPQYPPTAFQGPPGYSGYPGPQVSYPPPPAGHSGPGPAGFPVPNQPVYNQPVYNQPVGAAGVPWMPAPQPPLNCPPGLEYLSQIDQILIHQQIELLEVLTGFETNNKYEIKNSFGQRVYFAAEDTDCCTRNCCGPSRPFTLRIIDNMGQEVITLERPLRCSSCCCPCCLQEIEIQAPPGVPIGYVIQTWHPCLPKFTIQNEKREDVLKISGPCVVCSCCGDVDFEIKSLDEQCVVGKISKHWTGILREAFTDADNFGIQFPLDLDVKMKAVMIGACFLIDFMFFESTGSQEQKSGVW
UniProt Q15181: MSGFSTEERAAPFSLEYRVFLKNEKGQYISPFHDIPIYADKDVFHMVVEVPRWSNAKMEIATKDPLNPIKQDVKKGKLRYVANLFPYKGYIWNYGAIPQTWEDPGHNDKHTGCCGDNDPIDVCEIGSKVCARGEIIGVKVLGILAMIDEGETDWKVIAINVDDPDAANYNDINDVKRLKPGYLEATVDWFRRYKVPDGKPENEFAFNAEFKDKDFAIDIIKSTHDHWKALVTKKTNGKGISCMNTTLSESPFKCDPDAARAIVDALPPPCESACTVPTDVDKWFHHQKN
UniProt O15318: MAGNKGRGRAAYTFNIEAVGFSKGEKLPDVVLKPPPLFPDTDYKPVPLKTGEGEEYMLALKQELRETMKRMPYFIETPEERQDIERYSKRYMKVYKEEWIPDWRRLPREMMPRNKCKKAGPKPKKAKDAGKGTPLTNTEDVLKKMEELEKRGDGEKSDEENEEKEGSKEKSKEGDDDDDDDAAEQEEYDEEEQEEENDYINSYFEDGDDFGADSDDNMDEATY
UniProt Q9UIW2: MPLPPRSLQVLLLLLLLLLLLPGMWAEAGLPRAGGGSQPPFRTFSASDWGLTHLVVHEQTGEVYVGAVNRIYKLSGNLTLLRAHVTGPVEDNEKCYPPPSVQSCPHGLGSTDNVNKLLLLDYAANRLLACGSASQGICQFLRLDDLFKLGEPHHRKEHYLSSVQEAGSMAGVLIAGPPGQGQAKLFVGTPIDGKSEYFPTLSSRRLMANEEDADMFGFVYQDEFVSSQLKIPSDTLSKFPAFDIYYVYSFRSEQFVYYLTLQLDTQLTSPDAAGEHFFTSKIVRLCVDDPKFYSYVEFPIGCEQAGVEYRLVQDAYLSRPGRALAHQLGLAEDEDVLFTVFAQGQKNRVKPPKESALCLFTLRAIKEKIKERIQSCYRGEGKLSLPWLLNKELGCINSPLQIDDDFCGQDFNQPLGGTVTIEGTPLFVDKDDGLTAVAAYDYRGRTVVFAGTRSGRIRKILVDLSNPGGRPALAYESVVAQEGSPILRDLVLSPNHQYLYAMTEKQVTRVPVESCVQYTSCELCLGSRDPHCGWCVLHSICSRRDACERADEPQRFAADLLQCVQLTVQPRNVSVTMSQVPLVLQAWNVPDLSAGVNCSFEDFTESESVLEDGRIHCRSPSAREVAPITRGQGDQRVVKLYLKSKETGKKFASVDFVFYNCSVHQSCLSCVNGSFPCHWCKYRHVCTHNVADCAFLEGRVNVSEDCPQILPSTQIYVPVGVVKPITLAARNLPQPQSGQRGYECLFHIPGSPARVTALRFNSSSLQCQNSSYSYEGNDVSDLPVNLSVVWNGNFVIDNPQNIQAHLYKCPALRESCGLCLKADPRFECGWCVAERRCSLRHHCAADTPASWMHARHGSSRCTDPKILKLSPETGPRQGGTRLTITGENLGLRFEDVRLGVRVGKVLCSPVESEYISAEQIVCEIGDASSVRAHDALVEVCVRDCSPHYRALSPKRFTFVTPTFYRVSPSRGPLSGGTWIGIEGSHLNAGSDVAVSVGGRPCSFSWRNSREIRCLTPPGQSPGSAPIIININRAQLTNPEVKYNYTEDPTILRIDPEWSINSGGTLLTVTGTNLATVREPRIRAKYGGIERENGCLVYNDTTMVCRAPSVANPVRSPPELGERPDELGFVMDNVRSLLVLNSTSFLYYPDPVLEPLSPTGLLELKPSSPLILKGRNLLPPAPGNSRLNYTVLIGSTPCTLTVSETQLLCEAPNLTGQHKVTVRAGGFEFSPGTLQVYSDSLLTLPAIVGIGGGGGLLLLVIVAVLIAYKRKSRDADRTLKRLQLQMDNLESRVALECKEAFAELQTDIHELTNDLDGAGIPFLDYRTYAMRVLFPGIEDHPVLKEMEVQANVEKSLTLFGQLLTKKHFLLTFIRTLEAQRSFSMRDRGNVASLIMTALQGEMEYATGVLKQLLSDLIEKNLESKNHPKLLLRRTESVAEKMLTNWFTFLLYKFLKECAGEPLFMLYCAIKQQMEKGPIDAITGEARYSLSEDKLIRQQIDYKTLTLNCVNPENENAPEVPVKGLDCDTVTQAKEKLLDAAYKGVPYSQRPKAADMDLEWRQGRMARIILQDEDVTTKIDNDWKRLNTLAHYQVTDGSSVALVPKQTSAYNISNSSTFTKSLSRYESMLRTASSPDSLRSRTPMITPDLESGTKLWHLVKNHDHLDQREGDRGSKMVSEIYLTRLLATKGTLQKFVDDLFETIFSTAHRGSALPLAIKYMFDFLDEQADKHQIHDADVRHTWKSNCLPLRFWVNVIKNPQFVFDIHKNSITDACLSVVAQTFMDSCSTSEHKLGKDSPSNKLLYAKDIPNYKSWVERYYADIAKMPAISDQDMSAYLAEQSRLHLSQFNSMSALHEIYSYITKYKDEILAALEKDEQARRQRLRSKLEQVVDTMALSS
UniProt O60664: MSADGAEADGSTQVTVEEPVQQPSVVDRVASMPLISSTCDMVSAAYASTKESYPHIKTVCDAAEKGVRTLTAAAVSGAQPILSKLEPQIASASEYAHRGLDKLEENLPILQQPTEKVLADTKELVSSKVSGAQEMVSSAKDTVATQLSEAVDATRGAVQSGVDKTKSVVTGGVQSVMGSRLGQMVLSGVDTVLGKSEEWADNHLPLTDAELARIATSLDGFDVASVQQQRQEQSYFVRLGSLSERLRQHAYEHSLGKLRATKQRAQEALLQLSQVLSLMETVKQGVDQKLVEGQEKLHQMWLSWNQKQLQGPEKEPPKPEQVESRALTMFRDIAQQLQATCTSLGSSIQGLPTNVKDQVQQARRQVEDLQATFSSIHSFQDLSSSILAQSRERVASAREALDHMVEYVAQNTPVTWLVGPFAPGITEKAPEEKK

Tests used:
Experiment in all cases: log2 fold change, soluble protein after heating vs DMSO (PISA); higher = thermal stabilisation; K562 lysate, 10 uM; active = over 0.2 and 3.5 SD of the protein, either way, in both replicates (recomputed)
[1] = compound: C=CC(=O)N1CCC[C@@H](n2nc(-c3ccc(Oc4ccccc4)cc3)c3c(N)ncnc32)C1 [ibrutinib]
Procedure, shortened: (§1)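 Quantification was by TMTpro 16plex LC-MS/MS with equalised channel sums, applied to the supernatant after 21,000xg for 90 min. Samples were crude K562 extract at 1 mg/mL protein in PBS pH 7.4 with 1 mM MgCl2, treated with 10 μM compound for 30 min, heated for 3 min across 48°C-58°C, pooled and brought to 0.5% NP-40 at 4°C. Values are log-two fold changes in thermal stability relative to solvent controls, from duplicates.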

[2] = compound: CC(=O)c1cnc2ccc(-c3cc(Cl)c(O)c(Cl)c3)nc2c1N[C@H]1CC[C@H](CN(C)C)CC1
Procedure, shortened: as §1

[3] = compound: CC(C)(C)Cn1c(N)nc2ccc(-c3[nH]c(C(C)(C)C)nc3-c3ccc(F)cc3)nc21 [ralimetinib]
Procedure, shortened: as §1

[4] = compound: CC(C)(O)CC(=O)NCCn1ccc2ncnc(Nc3ccc(Oc4cccc(C(F)(F)F)c4)c(Cl)c3)c21
Procedure, shortened: as §1

[5] = compound: CC(C)C1=C2N=C(C=C(N2N=C1)NCC3=CC=CC=C3)NCCCCCCN
Procedure, shortened: as §1

[6] = compound: CC1=C(C(CC(=O)N1)C2=CC=C(C=C2)C(F)(F)F)C(=O)NC3=C(C=C4C(=C3)C=NN4)F
Procedure, shortened: as §1

[7] = compound: CC1=C(C2=C(C=C1)C(=O)C3=CC=CC=C3N2CCCN)C
Procedure, shortened: as §1

[8] = compound: CC1=C(C=C(C=C1)NC(=O)C2=CC(=CC=C2)C(C)(C)C#N)NC3=CC4=C(C=C3)N=CN(C4=O)C
Procedure, shortened: as §1

[9] = compound: CC1=C(C=C(C=C1)NC(=O)C2=CC(=CC=C2)N(C)C)NC(=O)C3=CC=C(C=C3)O
Procedure, shortened: as §1

[10] = compound: CC1=CC=C(C=C1)SC2=C3C=C(SC3=CN=C2)C(=O)N
Procedure, shortened: as §1

[11] = compound: CCCS(=O)(=O)Nc1ccc(F)c(C(=O)c2c[nH]c3ncc(-c4ccc(Cl)cc4)cc23)c1F [vemurafenib]
Procedure, shortened: as §1

[12] = compound: CCCS(=O)(=O)Nc1ccc(F)c(C(=O)c2c[nH]c3ncc(Cl)cc23)c1F
Procedure, shortened: as §1

[13] = compound: CCN(CCCOc1ccc2c(Nc3cc(CC(=O)Nc4cccc(F)c4)[nH]n3)ncnc2c1)CCOP(=O)(O)O [barasertib]
Procedure, shortened: as §1

[14] = compound: CC[C@@H]1C(=O)N(C)c2cnc(Nc3ccc(C(=O)NC4CCN(C)CC4)cc3OC)nc2N1C1CCCC1
Procedure, shortened: as §1

[15] = compound: CC[C@@H]1C(=O)N(C)c2cnc(Nc3ccc(C(=O)N[C@H]4CC[C@H](N5CCN(CC6CC6)CC5)CC4)cc3OC)nc2N1C(C)C [volasertib]
Procedure, shortened: as §1

[16] = compound: CCn1c(C(=O)N(C2CC2)C2CC2)cc2c3c(ncn3C)c(Nc3cc(C)n(C)n3)nc21
Procedure, shortened: as §1

[17] = compound: CCn1cc(-c2ccnc3[nH]c(-c4cccc(CN(C)C)c4)cc23)c(-c2ccc(NC(=O)N(C)C)cc2)n1
Procedure, shortened: as §1

[18] = compound: CN1CCC(CNc2ccc3ncc(-c4cccc(OC(F)(F)F)c4)n3n2)CC1
Procedure, shortened: as §1

[19] = compound: CN1CCN(CCOc2cc(OC3CCOCC3)c3c(Nc4c(Cl)ccc5c4OCO5)ncnc3c2)CC1 [saracatinib]
Procedure, shortened: as §1

[20] = compound: CN1CCN(c2nc(C3=C(c4c[nH]c5ccccc45)C(=O)NC3=O)c3ccccc3n2)CC1 [sotrastaurin]
Procedure, shortened: as §1

Measured: log2 fold change

POLD1 (UniProt P28340)
inactive: [1] -0.003 | [2] 0.014 | [3] 0.035 | [4] 0.018 | [5] 0 | [6] 0.005 | [7] -0.012 | [8] 0.005 | [9] 0.02 | [10] -0.032 | [11] 0.01 | [12] 0.053 | [13] -0.011 | [14] -0.021 | [15] -0.005 | [16] 0.035 | [17] 0.028 | [18] -0.043 | [19] 0.01 | [20] 0.015

PON2 (UniProt Q15165)
inactive: [1] -0.028 | [2] 0.005 | [3] 0.025 | [4] -0.001 | [5] -0.004 | [6] 0.048 | [7] 0.005 | [8] 0.012 | [9] -0.033 | [10] -0.044 | [11] 0.066 | [12] 0.035 | [13] 0.097 | [14] 0.018 | [15] -0.027 | [16] -0.013 | [17] 0.045 | [18] 0 | [19] 0.162 | [20] 0.038

POLR2D (UniProt O15514)
inactive: [1] 0.147 | [2] 0.001 | [3] -0.07 | [4] -0.015 | [5] 0.016 | [6] 0.004 | [7] -0.067 | [8] -0.022 | [9] -0.016 | [10] 0.002 | [11] 0.04 | [12] 0.001 | [13] 0.258 | [14] 0.087 | [15] -0.008 | [16] 0.011 | [17] 0.061 | [18] 0.041 | [19] 0.057 | [20] 0.014

POLR2H (UniProt P52434)
inactive: [1] -0.014 | [2] -0.014 | [3] -0.059 | [4] -0.05 | [5] -0.035 | [6] 0.014 | [7] 0.003 | [8] 0.013 | [9] 0.001 | [10] -0.006 | [11] 0.021 | [12] 0 | [13] 0.085 | [14] 0 | [15] 0.002 | [16] -0.011 | [17] -0.059 | [18] 0.049 | [19] 0.02 | [20] 0.007

POLA1 (UniProt P09884)
inactive: [1] 0 | [2] -0.013 | [3] -0.032 | [4] 0.003 | [5] 0.001 | [6] 0.007 | [7] -0.001 | [8] 0.02 | [9] 0.022 | [10] -0.016 | [11] 0.002 | [12] 0 | [13] 0.042 | [14] 0.021 | [15] -0.012 | [16] 0.03 | [17] -0.009 | [18] -0.016 | [19] -0.003 | [20] 0.004

POR (UniProt P16435)
inactive: [1] -0.002 | [2] -0.031 | [3] -0.017 | [4] -0.025 | [5] -0.025 | [6] 0.006 | [7] 0.015 | [8] -0.012 | [9] -0.004 | [10] -0.023 | [11] -0.001 | [12] 0.013 | [13] 0.023 | [14] 0.025 | [15] 0.008 | [16] -0.017 | [17] -0.025 | [18] 0.002 | [19] 0.016 | [20] 0.007

PLOD1 (UniProt Q02809)
inactive: [1] 0.014 | [2] 0.007 | [3] 0.035 | [4] 0.022 | [5] -0.005 | [6] 0.023 | [7] 0.009 | [8] 0.014 | [9] 0.008 | [10] 0.03 | [11] 0.008 | [12] 0.012 | [13] 0.027 | [14] 0.014 | [15] -0.002 | [16] 0.007 | [17] -0.045 | [18] 0.027 | [19] 0.016 | [20] 0.03

PLXNB2 (UniProt O15031)
inactive: [1] 0.019 | [2] 0.016 | [3] 0.035 | [4] -0.026 | [5] -0.03 | [6] 0.033 | [7] 0.006 | [8] -0.02 | [9] -0.003 | [10] -0.016 | [11] 0.011 | [12] -0.007 | [13] 0.008 | [14] 0.051 | [15] -0.021 | [16] -0.003 | [17] -0.043 | [18] -0.019 | [19] 0.005 | [20] 0.024

POLR2G (UniProt P62487)
inactive: [1] -0.01 | [2] -0.001 | [3] 0.027 | [4] -0.017 | [5] -0.028 | [6] -0.015 | [7] 0.02 | [8] 0.029 | [9] -0.008 | [10] -0.01 | [11] -0.014 | [12] 0.02 | [13] -0.003 | [14] 0.03 | [15] 0.023 | [16] 0 | [17] 0.025 | [18] 0.05 | [19] 0.016 | [20] 0.011

POLR3D (UniProt P05423)
inactive: [1] -0.015 | [2] -0.021 | [3] -0.017 | [4] -0.054 | [5] 0.82 | [6] 0.015 | [7] -0.047 | [8] -0.028 | [9] 0.019 | [10] 0.014 | [11] -0.019 | [12] -0.033 | [13] -0.002 | [14] 0.025 | [15] 0.012 | [16] 0.015 | [17] -0.135 | [18] 0.105 | [19] 0.031 | [20] 0.024

PLSCR1 (UniProt O15162)
inactive: [1] 0.022 | [2] 0.005 | [3] -0.022 | [4] 0.003 | [5] -0.008 | [6] -0.054 | [7] -0.001 | [8] 0.038 | [9] -0.07 | [10] -0.049 | [11] 0.032 | [12] -0.004 | [13] 0.003 | [14] 0.013 | [15] 0.046 | [16] 0.027 | [17] -0.094 | [18] 0.198 | [19] 0.051 | [20] 0.002

PPA1 (UniProt Q15181)
inactive: [1] 0.021 | [2] 0.015 | [3] -0.014 | [4] -0.003 | [5] 0.036 | [6] -0.04 | [7] 0.004 | [8] 0.004 | [9] -0.03 | [10] 0.003 | [11] 0.01 | [12] -0.017 | [13] -0.018 | [14] 0.074 | [15] -0.004 | [16] -0.039 | [17] 0.21 | [18] -0.036 | [19] 0.006 | [20] -0.016

POLR3G (UniProt O15318)
inactive: [1] -0.04 | [2] 0.016 | [3] -0.032 | [4] -0.08 | [5] -0.018 | [6] 0.063 | [7] -0.009 | [8] 0.011 | [9] -0.001 | [10] -0.002 | [11] 0.015 | [12] 0.003 | [13] 0.017 | [14] 0.091 | [15] -0.007 | [16] -0.048 | [17] -0.019 | [18] -0.028 | [19] -0.018 | [20] 0.059

Copied from the entries so far (2 entries):
POR (UniProt P16435)
inactive: [1] -0.002 | [2] -0.031 | [3] -0.017 | [4] -0.025 | [5] -0.025 | [6] 0.006 | [7] 0.015 | [8] -0.012 | [9] -0.004 | [10] -0.023 | [11] -0.001 | [12] 0.013 | [13] 0.023 | [14] 0.025 | [15] 0.008 | [16] -0.017 | [17] -0.025 | [18] 0.002 | [19] 0.016 | [20] 0.007

PLOD1 (UniProt Q02809)
inactive: [1] 0.014 | [2] 0.007 | [3] 0.035 | [4] 0.022 | [5] -0.005 | [6] 0.023 | [7] 0.009 | [8] 0.014 | [9] 0.008 | [10] 0.03 | [11] 0.008 | [12] 0.012 | [13] 0.027 | [14] 0.014 | [15] -0.002 | [16] 0.007 | [17] -0.045 | [18] 0.027 | [19] 0.016 | [20] 0.03

(continued)

PLXNA1 (UniProt Q9UIW2)
inactive: [1] 0.004 | [2] 0.017 | [3] 0.023 | [4] -0.019 | [5] -0.042 | [6] 0.002 | [7] -0.01 | [8] 0.008 | [9] 0.005 | [10] -0.001 | [11] 0.025 | [12] -0.003 | [13] 0.029 | [14] -0.013 | [15] -0.007 | [16] -0.012 | [17] -0.026 | [18] 0.019 | [19] -0.01 | [20] 0.02

PLS1 (UniProt Q14651)
inactive: [1] 0 | [2] -0.009 | [3] 0.011 | [4] -0.04 | [5] -0.005 | [6] 0.006 | [7] -0.003 | [8] 0.006 | [9] -0.013 | [10] 0.001 | [11] -0.015 | [12] 0.011 | [13] -0.036 | [14] 0.036 | [15] 0.002 | [16] -0.001 | [17] 0.023 | [18] -0.014 | [19] 0.015 | [20] -0.022

PLIN3 (UniProt O60664)
inactive: [1] 0.011 | [2] 0.022 | [3] 0 | [4] 0.029 | [5] 0.006 | [6] -0.012 | [7] 0.025 | [8] 0.003 | [9] -0.004 | [10] 0.016 | [11] 0.011 | [12] 0.01 | [13] 0.027 | [14] 0.007 | [15] 0.038 | [16] 0.013 | [17] 0.054 | [18] -0.045 | [19] -0.002 | [20] 0.01
